Drawing on publication PMC9732331, this text covers binding for one molecule.

Protein sequences, listed by entry. Tags and fused reporters are not part of them.
UniProt Q9UM11: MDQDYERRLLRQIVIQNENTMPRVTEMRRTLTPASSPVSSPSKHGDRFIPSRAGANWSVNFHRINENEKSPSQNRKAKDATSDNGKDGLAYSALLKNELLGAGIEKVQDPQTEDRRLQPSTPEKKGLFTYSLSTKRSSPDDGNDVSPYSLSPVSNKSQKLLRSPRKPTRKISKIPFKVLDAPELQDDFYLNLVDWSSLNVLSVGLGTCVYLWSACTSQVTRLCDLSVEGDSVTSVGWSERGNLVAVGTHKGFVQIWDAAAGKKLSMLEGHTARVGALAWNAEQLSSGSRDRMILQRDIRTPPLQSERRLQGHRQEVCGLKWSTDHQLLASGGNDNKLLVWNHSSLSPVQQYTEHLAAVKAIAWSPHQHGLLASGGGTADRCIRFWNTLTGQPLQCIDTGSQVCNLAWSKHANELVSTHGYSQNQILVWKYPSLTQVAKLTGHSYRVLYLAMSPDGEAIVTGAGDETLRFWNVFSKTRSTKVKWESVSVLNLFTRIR

Results are given in words; binding and its absence hold for the method and conditions named. Binding seen in cells or lysates may run through a third protein. Some results given as binding are weak or reduced against the parent protein; the word gives no strength.

This test deals with FLAG-tagged CDH1 (UniProt Q9UM11). The test can be described thus: co-IP; HEK293T cells co-transfected with FLAG-CDH1 and STYK1/NOK or its mutants or truncated forms, 10 μM MG132 for 4 h before harvesting; about 2000 μg lysate with anti-FLAG affinity gel at 4 °C overnight, washed 6 times with 1xPBS, immunoblot.

B1: STYK1/NOK (protein, UniProt Q6J9G0 1-422)
chain: MGMTRMLLECSLSDKLCVIQEKQYEVIIVPTLLVTIFLILLGVILWLFIREQRTQQQRSGPQGIAPVPPPRDLSWEAGHGGNVALPLKETSVENFLGATTPALAKLQVPREQLSEVLEQICSGSCGPIFRANMNTGDPSKPKSVILKALKEPAGLHEVQDFLGRIQFHQYLGKHKNLVQLEGCCTEKLPLYMVLEDVAQGDLLSFLWTCRRDVMTMDGLLYDLTEKQVYHIGKQVLLALEFLQEKHLFHGDVAARNILMQSDLTAKLCGLGLAYEVYTRGAISSTQTIPLKWLAPERLLLRPASIRADVWSFGILLYEMVTLGAPPYPEVPPTSILEHLQRRKIMKRPSSCTHTMYSIMKSCWRWREADRPSPRELRLRLEAAIKTADDEAVLQVPELVVPELYAAVAGIRVESLFYNYSML
With B1, the binding entry was “binds”.
